Reference: article PMC7415812
Results are given in words; binding and its absence hold for the method and conditions named. Binding seen in cells or lysates may run through a third protein. Some binding calls cover weakened binding; strength is not graded here.

Chains of the proteins cited; added tags and fusions are not shown. Residues count along the entry.
UniProt O00206, residues 24-839: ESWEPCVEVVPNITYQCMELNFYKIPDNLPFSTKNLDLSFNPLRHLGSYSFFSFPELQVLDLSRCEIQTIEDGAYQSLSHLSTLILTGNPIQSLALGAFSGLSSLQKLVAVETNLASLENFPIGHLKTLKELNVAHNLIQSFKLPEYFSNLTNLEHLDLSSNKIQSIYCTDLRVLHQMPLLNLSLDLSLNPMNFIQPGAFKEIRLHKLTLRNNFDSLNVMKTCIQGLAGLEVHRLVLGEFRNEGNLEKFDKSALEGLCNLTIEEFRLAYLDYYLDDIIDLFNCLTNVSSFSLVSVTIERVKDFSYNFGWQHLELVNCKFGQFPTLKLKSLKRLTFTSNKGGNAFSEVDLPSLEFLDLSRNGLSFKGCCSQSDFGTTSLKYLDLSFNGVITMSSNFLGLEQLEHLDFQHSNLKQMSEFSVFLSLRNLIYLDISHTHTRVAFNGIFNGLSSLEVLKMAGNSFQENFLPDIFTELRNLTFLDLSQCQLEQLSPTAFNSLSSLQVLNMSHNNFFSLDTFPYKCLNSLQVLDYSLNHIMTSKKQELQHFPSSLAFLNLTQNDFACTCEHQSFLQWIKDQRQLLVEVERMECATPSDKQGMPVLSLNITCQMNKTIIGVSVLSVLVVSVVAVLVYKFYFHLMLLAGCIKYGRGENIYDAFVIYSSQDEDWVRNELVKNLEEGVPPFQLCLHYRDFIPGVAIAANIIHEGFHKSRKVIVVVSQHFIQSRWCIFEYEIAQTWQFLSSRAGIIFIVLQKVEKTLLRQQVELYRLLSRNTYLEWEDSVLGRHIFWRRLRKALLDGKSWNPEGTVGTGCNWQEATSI
UniProt Q03135: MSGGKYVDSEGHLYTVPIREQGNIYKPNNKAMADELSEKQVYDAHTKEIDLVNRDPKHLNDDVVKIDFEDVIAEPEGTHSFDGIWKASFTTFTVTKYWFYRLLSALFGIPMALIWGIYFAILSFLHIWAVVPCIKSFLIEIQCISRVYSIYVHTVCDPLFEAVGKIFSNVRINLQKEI

How the values were obtained:
[1] = biological target: toll-like receptor-4 (human (endogenous in OVCAR-3)) (UniProt O00206); test: proximity ligation; Duolink PLA in fixed OVCAR-3 cells, primary antibodies 1:200 overnight at 4 °C, confocal microscopy; cells untreated or treated with Selene (Selene-L 10 µM, Selene-H 15 µM)
[2] = biological target: toll-like receptor-4 (human (endogenous in OVCAR-3)) (UniProt O00206); test: co-IP; antibody against the target protein or IgG (negative control) on protein A/G beads; OVCAR-3 cells lysed in RIPA buffer; beads with lysate overnight at 4 °C; washed with PBS with 0.1% NP-40; eluate analysed by Western blot
[3] = biological target: caveolin 1 (human (endogenous in OVCAR-3)) (UniProt Q03135); test: as above

caveolin 1 (from UniProt Q03135 1-178)
binding [1]: binds
binding [2]: binds

toll-like receptor-4 (from UniProt O00206 24-839)
binding [3]: binds
